Here are results for two molecules from publication doi:10.1101/2025.10.16.682884.

The assay deals with T1, endogenously tagged wrmScarlet::ALLO-1 fusion protein (C. elegans (endogenous in young adult animals)) (UniProt Q9U389).
T1 sequence: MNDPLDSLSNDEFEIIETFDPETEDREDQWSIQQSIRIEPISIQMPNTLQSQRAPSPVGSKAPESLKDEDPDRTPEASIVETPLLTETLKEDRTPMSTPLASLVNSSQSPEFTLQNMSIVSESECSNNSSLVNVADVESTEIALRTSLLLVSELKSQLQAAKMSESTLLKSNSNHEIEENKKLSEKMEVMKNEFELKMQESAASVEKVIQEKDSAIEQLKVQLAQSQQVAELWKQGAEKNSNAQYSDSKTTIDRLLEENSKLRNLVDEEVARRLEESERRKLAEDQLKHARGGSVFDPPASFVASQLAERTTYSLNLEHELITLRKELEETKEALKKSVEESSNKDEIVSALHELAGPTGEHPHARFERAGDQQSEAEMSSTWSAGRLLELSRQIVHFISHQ
Briefly: affinity purification with mass spectrometry.

These are yes or no findings as the source states them, for the method shown. In cells and extracts the contact can be indirect. Here binding means that the protein was enriched with, or labelled near, the bait; the list need not be complete. Sequences can lack the tags named with a protein.

B1: CAR-1 (cytokinesis/apoptosis regulator 1) (protein, UniProt Q9XW17 1-340)
chain: MSNQTPYIGSKISLISKLDIRYEGILYTVDTNDSTIALAKVRSFGTEKRPTANPVAARDDVYEYIIFKASDIKDLIVCDTPKMANIGGGLPYDPAIISVSSRSAPASDGAPAASAGSSRAGTPSRNSPLGQIIQNQRPGRGGYQQNFQANRGYNNYRGGFAGGYNNQRGHNNYGVPRVNHREKLKFESDFDFEKANEKFQEVLVDNLEKLNIEDKAEPEVEEKKDAAFYDKKTSFFDNISCESLEKAEGKTGRPDWKKERETNQETFGHNAVRSLNYRRGFGGRGRGGNRGYGGYNNGYQHQHQHRGGYNGGYRQNNGGYRRGGYAPRDNQGNTAAAAEQ
On to B1, for which the binding result is recorded as “binds”.

B2: DIM-1 (disorganized muscle protein 1) (protein, UniProt Q18066 1-640)
chain: MASLAPFFKISDSILADESFDDLEINNHFKCTSKDLNEYPRTSTPLPGEITSIYSLPRSYNNQNLCTRSKPTTFISQNQQKGMTEKPKHSEYFLRLMKTRQEMQKKLTAKNGSNKSVQQYLRKLPPSTSKEVTIIPVKMKPDDNSVYISKELSDRTDTKLPKVSTKEVEKFGEQSDDEERHERSHIASDFNQKTPQSTHATSNHRKRIFIGRTGAKQQHVSKKATESELPYNIDVSTSNTTNATEALKLLKRPLLLPSKDPRSSKMPRLDLNQHQFRCKQYIVHSQFTCTQIEKTFKCRVGTSTESEDLDDYYFDAMPDGKAPHFPQQPVARQNDDGSLELECFVDANPTPQVKWYYDNKEVENSGRFSANLANKGSDSYSAILTIKELADADAGAYRCAIVNPHGKGNANFNLKLTGFSSPTFVEKPQISSRDDGQVMVMEFRAKSILEPTFVWQKLVGGGAEEIIANSDRIKAVKKLEAGNVYYSALEIKEPTKDKDAGQFICTVKNESGKLTATFTVKFEVPEGAPSFTRKPQILQQTSAGGEPAICFDIGYSARMNPQVTWISPKSKKMKESSRIKFKTNDEGNGNFTAQLELTNYKAKDSGTYTCNIKNDAGEANVELTLNIEGPLDDYADDSEN
Regarding B2, the binding result was “binds”.
